Experimental data: paper PMC12016516
No constants are given. Whether binding was seen depends on the method and setting. Binding seen in cells or lysates may run through a third protein. Here binding means that the protein was enriched with, or labelled near, the bait; the list need not be complete. Values belong to the binder of their own block, whether it stands above or below them.

Amino acid sequences for entries named in this document (tags omitted). A change or cut given only in a name is not applied to a line headed by its entry.
UniProt Q5JIK0: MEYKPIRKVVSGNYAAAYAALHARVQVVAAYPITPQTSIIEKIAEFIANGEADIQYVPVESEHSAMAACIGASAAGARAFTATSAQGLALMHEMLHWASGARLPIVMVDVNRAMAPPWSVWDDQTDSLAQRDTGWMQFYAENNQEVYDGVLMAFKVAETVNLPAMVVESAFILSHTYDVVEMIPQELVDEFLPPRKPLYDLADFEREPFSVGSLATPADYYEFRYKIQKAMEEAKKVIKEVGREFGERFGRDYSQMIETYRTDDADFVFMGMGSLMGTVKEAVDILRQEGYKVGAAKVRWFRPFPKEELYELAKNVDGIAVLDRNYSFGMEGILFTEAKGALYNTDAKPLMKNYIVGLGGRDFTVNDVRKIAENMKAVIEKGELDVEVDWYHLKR

Columns and labels:
[1] = target: 2-Oxoisovalerate-ferredoxin oxidoreductase, α subunit (Thermococcus kodakarensis) (UniProt Q5JIK0); assay: affinity purification with mass spectrometry; HA- and His6-tagged bait made from its native locus, captured from clarified T. kodakarensis lysate on a Ni2+-charged chelating column (buffer A: 10 mM Tris HCl pH 8.0, 500 mM NaCl, 10% glycerol), eluted with an imidazole gradient; pooled fractions identified by MuDPIT LC-MS/MS and compared with the parental strain TS559 (P < 0.05, log2 fold change ≥ 2); cells grown at 85°C with (+S˚) or without (–S˚) elemental sulfur
[2] = target: T1, 2-Oxoisovalerate-ferredoxin oxidoreductase, β subunit (Thermococcus kodakarensis) (UniProt Q5JIJ9); assay: as above
T1 sequence: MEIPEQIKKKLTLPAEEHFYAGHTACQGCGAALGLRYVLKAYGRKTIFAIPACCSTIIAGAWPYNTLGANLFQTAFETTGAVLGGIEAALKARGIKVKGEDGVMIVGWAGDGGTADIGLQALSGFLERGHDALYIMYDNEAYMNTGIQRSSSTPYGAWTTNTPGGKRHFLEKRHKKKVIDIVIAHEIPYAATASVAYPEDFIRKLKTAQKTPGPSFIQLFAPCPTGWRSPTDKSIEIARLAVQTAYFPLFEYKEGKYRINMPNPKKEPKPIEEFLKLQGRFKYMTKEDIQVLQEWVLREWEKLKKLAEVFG

[3] = target: T2, 2-Oxoisovalerate-ferredoxin oxidoreductase, δ subunit (Thermococcus kodakarensis) (UniProt Q5JIK1); assay: as above
T2 sequence: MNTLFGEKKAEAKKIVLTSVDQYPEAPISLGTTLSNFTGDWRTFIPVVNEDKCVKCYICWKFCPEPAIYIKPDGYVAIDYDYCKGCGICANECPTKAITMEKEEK

[4] = target: T3, 2-Oxoacid:ferredoxin oxidoreductases, β2 subunit (Thermococcus kodakarensis), Q5JE71; assay: affinity purification with mass spectrometry; HA- and His6-tagged bait made from its native locus, captured from clarified T. kodakarensis lysate on a Ni2+-charged chelating column (buffer A: 10 mM Tris HCl pH 8.0, 500 mM NaCl, 10% glycerol), eluted with an imidazole gradient; pooled fractions identified by MuDPIT LC-MS/MS and compared with the parental strain TS559 (P < 0.05, log2 fold change ≥ 2); cells grown at …; details: remark: other sources report otherwise
T3 chain: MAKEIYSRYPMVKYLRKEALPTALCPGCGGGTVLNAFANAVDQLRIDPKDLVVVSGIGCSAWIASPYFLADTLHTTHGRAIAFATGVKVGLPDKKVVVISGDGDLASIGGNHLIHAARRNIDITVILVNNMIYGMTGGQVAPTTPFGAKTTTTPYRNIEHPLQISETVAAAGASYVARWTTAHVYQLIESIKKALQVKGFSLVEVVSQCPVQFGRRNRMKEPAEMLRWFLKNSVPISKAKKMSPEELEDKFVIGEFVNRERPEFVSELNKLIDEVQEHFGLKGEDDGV

[5] = target: T4, Geranylgeranyl reductase (Thermococcus kodakarensis), Q5JE27; assay: as above; details: remark: other sources report otherwise
T4 chain: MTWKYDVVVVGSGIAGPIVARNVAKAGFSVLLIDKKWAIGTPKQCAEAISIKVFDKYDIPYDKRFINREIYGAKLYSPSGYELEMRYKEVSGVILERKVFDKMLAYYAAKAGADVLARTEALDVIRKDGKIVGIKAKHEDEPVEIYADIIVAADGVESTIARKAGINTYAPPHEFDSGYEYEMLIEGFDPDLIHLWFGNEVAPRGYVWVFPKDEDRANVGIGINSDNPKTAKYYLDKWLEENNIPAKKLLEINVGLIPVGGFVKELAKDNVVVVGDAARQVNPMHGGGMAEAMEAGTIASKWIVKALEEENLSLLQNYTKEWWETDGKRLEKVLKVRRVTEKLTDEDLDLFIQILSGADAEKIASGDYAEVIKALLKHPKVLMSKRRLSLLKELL

[6] = target: T5, 2-Oxoisovalerate-ferredoxin oxidoreductase, γ subunit (Thermococcus kodakarensis) (UniProt Q5JIK2); assay: affinity purification with mass spectrometry; HA- and His6-tagged bait made from its native locus, captured from clarified T. kodakarensis lysate on a Ni2+-charged chelating column (buffer A: 10 mM Tris HCl pH 8.0, 500 mM NaCl, 10% glycerol), eluted with an imidazole gradient; pooled fractions identified by MuDPIT LC-MS/MS and compared with the parental strain TS559 (P < 0.05, log2 fold change ≥ 2); cells grown at 85°C with (+S˚) or without (–S˚) elemental sulfur
T5 sequence: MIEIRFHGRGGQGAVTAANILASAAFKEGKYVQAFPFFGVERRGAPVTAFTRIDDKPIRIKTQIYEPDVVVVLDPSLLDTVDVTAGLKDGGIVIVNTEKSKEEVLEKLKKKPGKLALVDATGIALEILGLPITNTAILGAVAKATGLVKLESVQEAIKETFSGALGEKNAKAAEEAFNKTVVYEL

[7] = target: T6, Formate dehydrogenase, [4Fe-4S] cluster-binding protein, FDHγ3 (Thermococcus kodakarensis) (UniProt Q5JHV9); assay: as above
T6 sequence: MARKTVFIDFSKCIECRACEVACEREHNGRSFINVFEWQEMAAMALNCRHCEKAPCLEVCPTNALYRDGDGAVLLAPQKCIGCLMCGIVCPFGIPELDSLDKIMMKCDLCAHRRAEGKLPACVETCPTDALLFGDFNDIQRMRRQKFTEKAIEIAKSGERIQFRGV

[8] = target: T7, [4Fe-4S] cluster-binding protein associated with FDH, FDHγ2 (Thermococcus kodakarensis) (UniProt Q5JHW1); assay: as above
T7 sequence: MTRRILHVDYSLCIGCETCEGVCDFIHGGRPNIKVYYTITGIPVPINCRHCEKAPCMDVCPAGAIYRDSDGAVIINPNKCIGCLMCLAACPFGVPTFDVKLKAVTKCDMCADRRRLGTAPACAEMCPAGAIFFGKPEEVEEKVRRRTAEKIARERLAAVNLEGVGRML

B1: 2-Oxoisovalerate-ferredoxin oxidoreductase, γ subunit (protein, UniProt Q5JIK2 1-185)
chain: T5 sequence
binding [1]: binds | binding [2]: binds | binding [3]: binds

B3: 2-Oxoisovalerate-ferredoxin oxidoreductase, δ subunit (protein, UniProt Q5JIK1 1-105)
chain: T2 sequence
binding [1]: binds | binding [2]: binds | binding [6]: binds

B5: glutamate synthase (TK2074) (protein, UniProt Q5JHW2 1-351)
chain: MEGIRFAFLCREKPEPTGKKVAVIGAGPAGLAATGYLVCQGHEVHVYDKLPEPGGLMLFGIPEFRIPIYRVREGYKELEKVYNVKFFTRTKVCFGNPKESGDEFVERRIEFEEILKNYDAVLIATGTWNAYVPTIPGSDLEGVYPALEYLFRIKSAKLGHMDWSEVPPVEGRKVLVVGAGHSAVDAALESINLGAEKVYMSYRRTIREAPAGAYEINLLQQRGVKWLERTMPVRIIGENGRVRAVELVKTELSEPDETGRRRPIPIEGSNFQIEVDYMVCAVGQMPTPPFSKEMGIALDRKGRIVVDSRHMTSREGVFAAGDVVLGPSKVGRAVKDGLYAAESIHLWLMGR
binding [7]: binds | binding [8]: binds

The remaining lines, values ahead:

binding [4]: binds | binding [5]: binds
B2: ferredoxin 3, Q5JDE8 1-138 (protein)
chain: MADVKAPVIGRDALGREVKDLSVIPWWGVDRKEIEWYPKINYSVCARCGLCFITCGRRVFDWDTEEGKPVVARPYNCMVGCNTCAILCPCNAIEFPPKEYVKKLVIEHGIIRKAFEITKPLTKKKEESTNGAESVFNP

binding [1]: binds | binding [6]: binds | binding [3]: binds
B4: 2-Oxoisovalerate-ferredoxin oxidoreductase, β subunit (protein, UniProt Q5JIJ9 1-311)
chain: T1 sequence
